The results in this text go back to the supplement of paper PMC12819154, “High-throughput peptide-centric local stability assay extends protein–ligand identification to membrane proteins, tissues and bacteria” (Nature Structural & Molecular Biology, 2025).

Sequences of proteins named here, by UniProt entry; tags and fusion partners are left off. A change or cut given only in a name is not applied to a line headed by its entry.
UniProt Q9Y5W9: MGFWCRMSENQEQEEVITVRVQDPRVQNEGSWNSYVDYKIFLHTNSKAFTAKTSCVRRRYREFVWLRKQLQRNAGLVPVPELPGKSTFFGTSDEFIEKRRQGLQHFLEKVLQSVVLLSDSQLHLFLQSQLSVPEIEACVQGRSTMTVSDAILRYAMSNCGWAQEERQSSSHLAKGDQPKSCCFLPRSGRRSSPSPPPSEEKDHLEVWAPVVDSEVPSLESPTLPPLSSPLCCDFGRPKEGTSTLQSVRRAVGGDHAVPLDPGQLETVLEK
UniProt Q9Y5Q9: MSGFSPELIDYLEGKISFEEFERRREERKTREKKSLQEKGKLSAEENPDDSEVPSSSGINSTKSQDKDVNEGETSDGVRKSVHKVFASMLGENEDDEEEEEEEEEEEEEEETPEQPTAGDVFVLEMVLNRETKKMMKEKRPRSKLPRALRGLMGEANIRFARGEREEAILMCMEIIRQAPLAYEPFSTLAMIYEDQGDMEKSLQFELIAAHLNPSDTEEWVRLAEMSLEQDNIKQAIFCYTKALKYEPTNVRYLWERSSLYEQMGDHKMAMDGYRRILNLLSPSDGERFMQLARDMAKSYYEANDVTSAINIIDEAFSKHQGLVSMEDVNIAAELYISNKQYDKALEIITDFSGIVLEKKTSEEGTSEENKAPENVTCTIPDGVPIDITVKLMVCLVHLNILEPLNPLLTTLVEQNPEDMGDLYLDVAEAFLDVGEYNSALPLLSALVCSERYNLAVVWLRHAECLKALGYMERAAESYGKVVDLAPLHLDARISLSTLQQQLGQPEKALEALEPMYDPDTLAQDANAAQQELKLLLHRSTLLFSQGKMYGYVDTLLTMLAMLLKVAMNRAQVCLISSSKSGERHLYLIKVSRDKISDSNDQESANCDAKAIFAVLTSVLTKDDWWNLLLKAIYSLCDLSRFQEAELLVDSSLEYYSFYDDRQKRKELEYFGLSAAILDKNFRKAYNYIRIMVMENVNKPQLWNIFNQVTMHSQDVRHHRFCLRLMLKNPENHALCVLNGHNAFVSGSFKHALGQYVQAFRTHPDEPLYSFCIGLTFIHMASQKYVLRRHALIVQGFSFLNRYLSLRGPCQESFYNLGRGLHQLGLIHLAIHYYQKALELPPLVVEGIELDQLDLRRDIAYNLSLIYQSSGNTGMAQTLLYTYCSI
UniProt Q9Y4X5: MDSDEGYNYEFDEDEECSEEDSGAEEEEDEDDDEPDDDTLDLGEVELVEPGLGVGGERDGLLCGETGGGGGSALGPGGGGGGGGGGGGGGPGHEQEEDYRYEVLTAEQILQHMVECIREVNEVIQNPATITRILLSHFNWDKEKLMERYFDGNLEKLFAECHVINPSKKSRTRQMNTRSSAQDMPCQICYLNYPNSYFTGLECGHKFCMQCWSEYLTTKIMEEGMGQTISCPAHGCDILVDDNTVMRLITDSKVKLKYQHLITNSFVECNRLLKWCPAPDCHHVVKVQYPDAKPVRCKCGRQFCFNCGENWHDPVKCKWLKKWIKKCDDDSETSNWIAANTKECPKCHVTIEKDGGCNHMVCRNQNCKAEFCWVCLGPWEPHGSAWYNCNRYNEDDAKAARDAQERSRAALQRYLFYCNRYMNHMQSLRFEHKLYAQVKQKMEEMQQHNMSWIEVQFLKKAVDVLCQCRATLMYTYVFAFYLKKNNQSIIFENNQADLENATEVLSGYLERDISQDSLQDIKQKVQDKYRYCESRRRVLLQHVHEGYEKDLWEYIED
UniProt Q9Y5K8, whole entry: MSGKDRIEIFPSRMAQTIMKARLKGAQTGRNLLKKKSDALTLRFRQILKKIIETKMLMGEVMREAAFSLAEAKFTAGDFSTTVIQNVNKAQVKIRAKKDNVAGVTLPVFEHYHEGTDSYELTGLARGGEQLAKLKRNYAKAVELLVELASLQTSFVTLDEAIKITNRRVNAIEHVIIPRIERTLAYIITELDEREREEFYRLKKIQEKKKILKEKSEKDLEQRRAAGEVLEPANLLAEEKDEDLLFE
UniProt Q9Y3F4: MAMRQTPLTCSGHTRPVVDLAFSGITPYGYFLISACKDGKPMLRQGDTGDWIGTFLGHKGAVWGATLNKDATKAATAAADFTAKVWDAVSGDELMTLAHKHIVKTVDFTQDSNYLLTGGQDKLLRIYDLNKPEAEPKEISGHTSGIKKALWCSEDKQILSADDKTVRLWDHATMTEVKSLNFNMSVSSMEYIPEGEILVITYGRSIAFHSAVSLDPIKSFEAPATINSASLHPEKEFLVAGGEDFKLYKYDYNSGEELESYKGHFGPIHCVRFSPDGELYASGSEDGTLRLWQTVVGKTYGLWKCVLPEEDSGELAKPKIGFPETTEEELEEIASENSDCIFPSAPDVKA
UniProt Q9Y4C1: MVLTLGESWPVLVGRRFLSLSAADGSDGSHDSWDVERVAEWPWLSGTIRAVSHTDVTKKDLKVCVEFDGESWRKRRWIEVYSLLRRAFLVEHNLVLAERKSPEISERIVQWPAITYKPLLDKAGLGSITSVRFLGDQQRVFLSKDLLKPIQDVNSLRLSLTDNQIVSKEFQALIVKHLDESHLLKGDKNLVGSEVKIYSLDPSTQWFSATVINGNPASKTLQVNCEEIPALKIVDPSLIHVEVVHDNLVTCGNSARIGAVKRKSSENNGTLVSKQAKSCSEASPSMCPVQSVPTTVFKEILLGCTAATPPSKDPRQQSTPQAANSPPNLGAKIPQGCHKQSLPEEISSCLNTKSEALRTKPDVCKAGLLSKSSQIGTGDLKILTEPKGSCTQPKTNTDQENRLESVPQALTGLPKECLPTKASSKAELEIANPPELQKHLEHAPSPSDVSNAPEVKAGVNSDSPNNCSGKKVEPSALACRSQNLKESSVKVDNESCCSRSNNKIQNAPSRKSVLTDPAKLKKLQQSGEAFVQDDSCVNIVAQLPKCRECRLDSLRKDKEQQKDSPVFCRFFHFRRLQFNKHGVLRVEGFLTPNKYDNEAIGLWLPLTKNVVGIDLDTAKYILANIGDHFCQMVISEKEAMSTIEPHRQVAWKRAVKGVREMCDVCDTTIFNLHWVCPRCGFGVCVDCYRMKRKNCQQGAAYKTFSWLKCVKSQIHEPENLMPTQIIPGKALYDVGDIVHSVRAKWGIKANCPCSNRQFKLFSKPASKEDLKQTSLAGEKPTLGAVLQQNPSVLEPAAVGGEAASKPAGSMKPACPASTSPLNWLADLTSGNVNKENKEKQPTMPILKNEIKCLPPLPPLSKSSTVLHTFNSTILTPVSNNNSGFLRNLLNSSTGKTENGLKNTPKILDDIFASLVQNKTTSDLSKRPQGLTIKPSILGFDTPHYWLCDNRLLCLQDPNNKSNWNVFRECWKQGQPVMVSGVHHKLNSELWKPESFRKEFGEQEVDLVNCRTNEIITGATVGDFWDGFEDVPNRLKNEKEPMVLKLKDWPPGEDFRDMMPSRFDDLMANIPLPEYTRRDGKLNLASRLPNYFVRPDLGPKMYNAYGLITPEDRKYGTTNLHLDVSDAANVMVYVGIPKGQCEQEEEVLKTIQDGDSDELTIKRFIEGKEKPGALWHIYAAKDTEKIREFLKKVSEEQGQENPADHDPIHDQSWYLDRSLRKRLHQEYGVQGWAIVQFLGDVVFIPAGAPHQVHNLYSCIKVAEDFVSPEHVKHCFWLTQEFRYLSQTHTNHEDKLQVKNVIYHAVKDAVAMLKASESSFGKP
UniProt Q9Y3T6: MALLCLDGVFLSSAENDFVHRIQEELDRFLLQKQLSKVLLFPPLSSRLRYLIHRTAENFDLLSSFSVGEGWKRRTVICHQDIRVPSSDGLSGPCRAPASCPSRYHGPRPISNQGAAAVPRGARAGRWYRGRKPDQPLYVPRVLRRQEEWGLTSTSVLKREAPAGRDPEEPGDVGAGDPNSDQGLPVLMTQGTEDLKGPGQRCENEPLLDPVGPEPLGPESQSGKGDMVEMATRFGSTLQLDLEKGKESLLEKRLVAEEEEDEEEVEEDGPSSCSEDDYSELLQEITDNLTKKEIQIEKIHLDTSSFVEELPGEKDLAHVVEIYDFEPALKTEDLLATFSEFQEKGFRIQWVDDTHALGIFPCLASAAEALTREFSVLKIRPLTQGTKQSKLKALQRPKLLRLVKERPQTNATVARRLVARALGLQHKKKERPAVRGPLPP
UniProt Q9Y546: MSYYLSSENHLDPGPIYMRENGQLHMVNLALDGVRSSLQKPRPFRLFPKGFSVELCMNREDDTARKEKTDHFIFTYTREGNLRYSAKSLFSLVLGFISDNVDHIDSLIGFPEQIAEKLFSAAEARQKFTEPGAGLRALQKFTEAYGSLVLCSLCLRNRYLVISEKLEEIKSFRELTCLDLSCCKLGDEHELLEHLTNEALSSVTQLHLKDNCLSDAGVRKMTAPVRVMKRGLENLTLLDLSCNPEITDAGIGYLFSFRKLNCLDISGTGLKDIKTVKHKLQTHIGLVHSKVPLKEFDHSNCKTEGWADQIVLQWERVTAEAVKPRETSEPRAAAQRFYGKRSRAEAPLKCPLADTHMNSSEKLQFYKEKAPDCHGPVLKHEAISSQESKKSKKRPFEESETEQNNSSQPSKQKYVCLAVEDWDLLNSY

The other results are listed elsewhere or left out. Most values lie at the level of the controls, where differences are scatter.

Compound in the test: Cc1nc(Nc2ncc(C(=O)Nc3c(C)cccc3Cl)s2)cc(N2CCN(CCO)CC2)n1 [dasatinib]
Briefly: log2 fold change of tryptic peptide abundance, ligand vs vehicle (limited proteolysis) (log2 ratio); higher = more trypsin-susceptible (destabilized). The conditions noted are these: ligand concentration: 5 uM; sample: K562 cleared lysate.
“SNX11 (peptide sequence: STMTVSDAILR, peptide start residue: 143) (UniProt Q9Y5W9)”: the log2 fold change is -0.118.

As for “GTF3C3 (peptide sequence: YNLAVVWLR, peptide start residue: 453) (UniProt Q9Y5Q9)”, the log2 fold change was found to be 1.85.

For “ARIH1 (peptide sequence: VQYPDAKPVR, peptide start residue: 287) (UniProt Q9Y4X5)”, the log2 fold change was 0.118.

As for “ATP6V1D (peptide sequence: SGKDRIEIFPSR, peptide start residue: 2) (UniProt Q9Y5K8)”, the log2 fold change is 0.273.

For “STRAP (peptide sequence: EISGHTSGIKK, peptide start residue: 138) (UniProt Q9Y3F4)”, the log2 fold change was found to be 0.83.

For “UniProt Q9Y4C1 (peptide sequence: LSLTDNQIVSK, peptide start residue: 158)”, the log2 fold change is -1.03.

As for “R3HCC1 (peptide sequence: VPSSDGLSGPCR, peptide start residue: 84) (UniProt Q9Y3T6)”, the log2 fold change was -0.557.

With “LRRC42 (peptide sequence: EKTDHFIFTYTR, peptide start residue: 67) (UniProt Q9Y546)”, the log2 fold change was -0.347.
